Reference: article PMC4414354, “The Pentameric Nucleoplasmin Fold Is Present in Drosophila FKBP39 and a Large Number of Chromatin-Related Proteins” (Journal of Molecular Biology, 2015)
These are yes or no findings as the source states them, for the method shown. Binding seen in cells or lysates may run through a third protein. A yes stands for co-enrichment or nearness to the bait. Other partners may have been found. Tags and fused reporters may be left off the sequences shown.

Molecular target: T1, FKBP39 N-terminal half (amino acids 1-150) C-terminally tagged with protein A (Drosophila melanogaster) (UniProt P54397)
T1 sequence: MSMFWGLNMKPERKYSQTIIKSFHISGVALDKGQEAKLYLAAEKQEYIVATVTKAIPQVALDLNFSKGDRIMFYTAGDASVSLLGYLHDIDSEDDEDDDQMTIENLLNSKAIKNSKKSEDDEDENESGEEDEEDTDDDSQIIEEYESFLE
Test: affinity purification with mass spectrometry; protein-A-tagged bait expressed in Drosophila D.Mel-2 cells; cleared lysates bound to rabbit IgG DynaBeads, washed, eluted with 0.5 M NH4OH; SDS-PAGE and LC-MS/MS

binding: binds
B1: endogenous full-length FKBP39 (protein, UniProt P54397 1-357)
chain: MSMFWGLNMKPERKYSQTIIKSFHISGVALDKGQEAKLYLAAEKQEYIVATVTKAIPQVALDLNFSKGDRIMFYTAGDASVSLLGYLHDIDSEDDEDDDQMTIENLLNSKAIKNSKKSEDDEDENESGEEDEEDTDDDSQIIEEYESFLENGEEEDDDDVDEDNEESGEEDEQDSDDSEAEEEQPKAKVAKLSPGASAKKSGKEQNGVAKKEEAKQQQKKKEKPEAKKEQPKAKEPAKQQPASKDPRTITGGVKIVDQVVGKGEEAKQGKRVSVYYIGRLQSNNKTFDSLLKGKPFKFALGGGEVIKGWDVGVAGMKVGGKRVITCPPHMAYGARGAPPKIGPNSTLVFEVELKAVH
